For series [1], the system named is CAF40 module (NOT1:CAF40) (Homo sapiens). As to the kind of experiment: EMSA. The following applies: 1 uM protein, EMSA: 20 mM Tris/HCl pH 7.5, 10 mM NaCl, 2 mM MgCl2, 0.1% BSA, 0.1% Orange G, 3% Ficoll 400, 100 nM RNA, 10% native PAGE in TBE pH 8.3, temperature not stated, recombinant protein, protein details: MBP (NOT1) and His6 (CAF40) removed, label: 5' 6-FAM. In general terms: Mobility shift assays separate free from complexed probe on a gel.

Chains of the proteins cited; added tags and fusions are not shown. A line that says so, or that is headed by a name, gives the form on record, which may keep a tag or linker.
CAF40 module (NOT1:CAF40) (Homo sapiens), one chain, as listed by the source, chain 1 of 2: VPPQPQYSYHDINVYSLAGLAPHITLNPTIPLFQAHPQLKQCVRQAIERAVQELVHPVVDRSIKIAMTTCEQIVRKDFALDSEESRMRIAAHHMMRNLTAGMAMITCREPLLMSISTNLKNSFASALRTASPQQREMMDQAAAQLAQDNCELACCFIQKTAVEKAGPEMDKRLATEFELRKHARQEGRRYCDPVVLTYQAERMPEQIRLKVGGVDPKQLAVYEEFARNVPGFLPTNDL
CAF40 module (NOT1:CAF40) (Homo sapiens), one chain, as listed by the source, chain 2 of 2: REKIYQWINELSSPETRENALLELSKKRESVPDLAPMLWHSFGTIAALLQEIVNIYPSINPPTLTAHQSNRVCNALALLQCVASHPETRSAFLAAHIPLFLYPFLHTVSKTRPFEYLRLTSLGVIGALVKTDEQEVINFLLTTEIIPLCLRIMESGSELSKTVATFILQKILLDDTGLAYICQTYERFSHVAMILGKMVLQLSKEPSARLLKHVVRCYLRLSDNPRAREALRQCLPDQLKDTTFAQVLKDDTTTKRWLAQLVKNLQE
NOT module (NOT1:NOT2:NOT3) (Homo sapiens), one chain, as listed by the source, chain 2 of 3: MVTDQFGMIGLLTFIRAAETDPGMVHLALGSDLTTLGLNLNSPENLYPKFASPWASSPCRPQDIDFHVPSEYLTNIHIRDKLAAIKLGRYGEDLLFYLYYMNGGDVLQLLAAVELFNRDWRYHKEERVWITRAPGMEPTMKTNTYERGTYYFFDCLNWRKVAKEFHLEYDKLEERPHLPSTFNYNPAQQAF
CCR4a:CAF1 (nuclease module) (Homo sapiens), one chain, as listed by the source, chain 1 of 2: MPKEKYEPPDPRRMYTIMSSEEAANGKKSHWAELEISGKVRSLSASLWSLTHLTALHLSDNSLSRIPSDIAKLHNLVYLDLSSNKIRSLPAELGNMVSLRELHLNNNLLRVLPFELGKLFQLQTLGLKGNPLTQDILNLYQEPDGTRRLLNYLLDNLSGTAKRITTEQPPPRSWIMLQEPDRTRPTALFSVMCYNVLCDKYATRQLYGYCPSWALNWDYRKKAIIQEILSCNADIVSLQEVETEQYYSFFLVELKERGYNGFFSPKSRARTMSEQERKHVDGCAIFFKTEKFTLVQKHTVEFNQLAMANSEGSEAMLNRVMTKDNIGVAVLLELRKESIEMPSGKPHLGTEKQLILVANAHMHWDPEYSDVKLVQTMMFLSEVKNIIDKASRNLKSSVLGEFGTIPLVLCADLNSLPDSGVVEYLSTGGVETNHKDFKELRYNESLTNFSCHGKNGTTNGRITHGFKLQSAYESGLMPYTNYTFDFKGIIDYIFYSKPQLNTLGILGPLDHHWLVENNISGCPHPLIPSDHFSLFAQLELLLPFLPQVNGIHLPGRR
NOT module (NOT1:NOT2:NOT3) (Homo sapiens), one chain, as listed by the source, chain 3 of 3: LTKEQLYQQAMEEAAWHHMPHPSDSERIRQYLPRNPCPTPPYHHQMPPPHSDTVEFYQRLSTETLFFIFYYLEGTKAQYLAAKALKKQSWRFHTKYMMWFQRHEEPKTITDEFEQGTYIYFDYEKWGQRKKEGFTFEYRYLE
NOT module (NOT1:NOT2:NOT3) (Homo sapiens), one chain, as listed by the source, chain 1 of 3: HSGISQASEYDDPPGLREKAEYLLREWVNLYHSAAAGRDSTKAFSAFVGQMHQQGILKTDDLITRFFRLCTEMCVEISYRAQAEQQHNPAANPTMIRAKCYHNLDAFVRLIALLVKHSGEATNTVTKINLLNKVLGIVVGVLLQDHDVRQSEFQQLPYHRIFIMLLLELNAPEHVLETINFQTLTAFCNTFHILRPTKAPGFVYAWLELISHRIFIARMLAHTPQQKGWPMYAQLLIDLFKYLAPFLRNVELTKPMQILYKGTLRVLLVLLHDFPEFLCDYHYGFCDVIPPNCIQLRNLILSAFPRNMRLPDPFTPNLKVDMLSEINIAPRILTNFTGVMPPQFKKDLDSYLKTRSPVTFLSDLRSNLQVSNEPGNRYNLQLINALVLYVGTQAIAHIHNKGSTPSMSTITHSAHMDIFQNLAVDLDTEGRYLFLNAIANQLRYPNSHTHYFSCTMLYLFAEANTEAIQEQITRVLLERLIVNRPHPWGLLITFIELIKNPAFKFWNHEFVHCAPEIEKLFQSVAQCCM
CCR4a:CAF1 (nuclease module) (Homo sapiens), one chain, as listed by the source, chain 2 of 2: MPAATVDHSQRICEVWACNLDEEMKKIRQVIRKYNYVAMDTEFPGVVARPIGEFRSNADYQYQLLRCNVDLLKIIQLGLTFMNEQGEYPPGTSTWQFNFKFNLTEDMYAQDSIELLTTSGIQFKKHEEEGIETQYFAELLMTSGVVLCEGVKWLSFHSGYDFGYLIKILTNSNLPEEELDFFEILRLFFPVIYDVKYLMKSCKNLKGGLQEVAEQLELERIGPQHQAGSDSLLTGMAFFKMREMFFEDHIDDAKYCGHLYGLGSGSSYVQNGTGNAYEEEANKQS

Series [2] relates to CCR4a:CAF1 (nuclease module) (Homo sapiens). As to the kind of experiment: EMSA. The conditions noted are these: EMSA: 20 mM Tris/HCl pH 7.5, 10 mM NaCl, 2 mM MgCl2, 0.1% BSA, 0.1% Orange G, 3% Ficoll 400, 100 nM RNA, 10% native PAGE in TBE pH 8.3, temperature not stated, recombinant protein, protein details: His6 and His6-SUMO removed, label: 5' 6-FAM.
Series [3] concerns NOT module (NOT1:NOT2:NOT3) (Homo sapiens). The series is described as follows: EMSA. The following applies: EMSA: 20 mM Tris/HCl pH 7.5, 10 mM NaCl, 2 mM MgCl2, 0.1% BSA, 0.1% Orange G, 3% Ficoll 400, 100 nM RNA, 10% native PAGE in TBE pH 8.3, temperature not stated, recombinant protein, label: 5' 6-FAM.
Series [4] deals with CAF40 module (NOT1:CAF40) (Homo sapiens). As to the kind of experiment: EMSA competition. The conditions noted are these: 100 uM NOT1:CAF40 + 200 uM MBP-Bam CBM WT (Bam 13-36), RNA binding efficiently prevented; EMSA: 20 mM Tris/HCl pH 7.5, 10 mM NaCl, 2 mM MgCl2, 0.1% BSA, 0.1% Orange G, 3% Ficoll 400; 100 nM RNA; 10% native PAGE in TBE pH 8.3; temperature not stated; recombinant protein; protein details: MBP (NOT1) and His6 (CAF40) removed; label: 5' 6-FAM.

For some of these results: Negatives hold for the conditions tested. For some of these results: At least one verdict rests on a figure or table, not on a statement of the authors. For some of these results: Construct, isoform or probe ends are uncertain for at least one entry. For some of these results: The comparison behind a weaker result is the experiment's own reference, which may not be listed here.

For the sequence “CACAUCCAACUUCUCUAAAUAAAAAAAAAAAAAAAAAAAA [13+7-mer-A20]”, the binding result in series [1] (only NOT10:NOT11 among the modules bound) was “no binding”.

Regarding UCUAAAUAAAAAAAAAAAAAAAAAAAA [7-mer-A20], the binding result is listed as “no binding” in series [1] (binding detectable only at 25 uM); “no binding” in series [2] (1 uM protein); “no binding” in series [2] (25 uM protein); “no binding” in series [3] (1 uM protein); “no binding” in series [3] (25 uM protein); “binds more weakly” in series [4].

Source of the values: publication PMC6639331.
